Measured values taken from US20240344241A1, “PROTEINACEOUS MOLECULES AND USES THEREFOR” (THE UNIVERSITY OF QUEENSLAND, priority 2021, published 2024).
Where two headings read alike, the source gives them in different places. At least one compound was matched to its structure with a doubt left. Bridge positions count the residues as written; N and C are the ends. Peptide text beside a SMILES is read from it.

Chains of the proteins cited; added tags and fusions are not shown. Residues count along the entry.
UniProt P00748, 373-615 limits assumed: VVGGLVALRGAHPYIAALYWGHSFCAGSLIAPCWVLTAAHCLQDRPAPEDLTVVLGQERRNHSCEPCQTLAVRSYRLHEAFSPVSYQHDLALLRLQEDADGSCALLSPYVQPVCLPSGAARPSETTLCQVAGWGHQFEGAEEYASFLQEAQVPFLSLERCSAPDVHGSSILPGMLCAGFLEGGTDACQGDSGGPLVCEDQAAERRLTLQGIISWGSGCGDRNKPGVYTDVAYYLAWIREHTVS

Tests used:
[1] = molecular target: T1, biotinylated human β-FXIIa (Homo sapiens, UniProt P00748); assay: Surface plasmon resonance binding to FXIIa
T1 construct: purchased Molecular Innovations
Method: Binding kinetics of each peptide towards biotinylated human β-FXIIa (Molecular Innovations) and non-labelled zymogen FXII (Haematologic Technologies) were determined using a Biacore T200 machine (Cytiva). For β-FXIIa binding measurements, the running buffer was HBS-EP+(10 mM HEPES, 150 mM NaCl, 3 mM EDTA and 0.05% (v/v) surfactant P20, pH 7.4). Biotinylated β-FXIIa was immobilized on a Sensor Chip CAP (Cytiva) using Biotin CAPture Reagent (Cytiva). A series of concentrations of each peptide were injected as analyte and the binding kinetics were modelled using a 1:1 binding model. Regeneration of sensor surface was performed after each measurement cycle. For FXII binding measurements, the running buffer was PBST (137 mM NaCl, 2.7 mM KCl, 10 mM Na2HPO4, 1.8 mM KH2PO4, 0.05% Tween-20). Non-labelled FXII was immobilized on a Sensor Chip CM5 (Cytiva) using Amine Coupling Kit (Cytiva), achieving a final immobilization level of 2500 RU. Each peptide was flowed through immobilized FXII at 5 μM for 60 s and allowed dissociation for 150 s.

[2] = molecular target: T2, Human β-FXIIa (Homo sapiens, UniProt P00748); assay: FXIIa competitive inhibition assay, colorimetric substrate Ac-QRFR-pNA; assay type: biochemical; details: read-out: Ki (nM) Acyclic, Table 7, acyclic form of the peptide
T2 construct: Human β-FXIIa was obtained from Molecular Innovations, together with human FXa, human FXIa, human α-thrombin, and human plasma kallikrein; purchased Molecular Innovations; host or cells: purified from human plasma
Method: The activity of acyclic and cyclic MCoFx1-5 and analogues thereof was assessed in competitive inhibition assays, as previously described in Swedberg et al. (2016) J Med Chem, 59: 7287-7292. Human β-FXIIa was obtained from Molecular Innovations, together with human FXa, human FXIa, human α-thrombin, and human plasma kallikrein. Human cationic trypsin and human plasmin were obtained from Sigma-Aldrich, and recombinant human matriptase was sourced from R&D Systems. Recombinant human urokinase (uPA) and recombinant human tissue plasminogen activator (tPA) were expressed in Expi293 cells, as previously described in Li et al. (2019) Chembiochem, 20: 46-50. […] After adding 100 μM Ac-QRFR-pNA substrate (KM=162 μM), enzymatic activity was measured by monitoring release of the pNA moiety using a TECAN infinite M1000 Pro plate reader (A=405 nm, reading interval, 10 s; assay time course, 7 min). […] Substrate kinetic constants (Michaelis-Menten) and inhibition constants (Morrison K) were determined by non-linear regression using Prism 7 (GraphPad). […] For assays using a fluorescent substrate (peptide-4-methylcoumaryl-7-amide, MCA), black low-binding 96-well plates were used and activity was measured using a TECAN infinite M1000 pro plate reader (λex 360 nm, λem 460 nm, reading interval, 30 s; assay time course, 5-30 min).

CC[C@H](C)[C@@H]1NC(=O)[C@@H]2CSSC[C@H](NC(=O)[C@H](CCCNC(=N)N)NC(=O)CNC(=O)CNC(=O)[C@@H](N)CC(=O)O)C(=O)N[C@@H](CS)C(=O)NCC(=O)NCC(=O)N[C@@H](Cc3ccc(O)cc3)C(=O)N[C@@H](CC(C)C)C(=O)N[C@@H](C(C)C)C(=O)N[C@H]3CSSC[C@H](NC1=O)C(=O)N[C@@H](C(C)C)C(=O)N[C@@H](Cc1ccccc1)C(=O)N[C@@H](CCCCN)C(=O)N[C@@H](CCCCN)C(=O)N[C@@H](Cc1c[nH]cn1)C(=O)N[C@H](C(=O)NCC(=O)N[C@@H](CO)C(=O)NCC(=O)N[C@@H](CO)C(=O)O)CSSC[C@H](NC(=O)[C@H](CC(=O)O)NC(=O)[C@H](CO)NC(=O)[C@H](CC(=O)O)NC(=O)[C@H](CCCNC(=N)N)NC(=O)[C@H](CCCNC(=N)N)NC3=O)C(=O)N1CCC[C@H]1C(=O)NCC(=O)N[C@@H](C)C(=O)N2 [MCoFx5 acyclic] (H-DGGRCCGGYLVCRRDSDCPGACICVFKKHCGSGS-OH; disulfide 5-22, 12-24, 18-30)
Kd ([1]; read-out: KD (nM) Acyclic, Table 7, FXIIa, acyclic form of the peptide): 23 ± 0.4 nM | Kd ([1]; read-out: KD (nM) FXIIa Acyclic, Table 8, acyclic form): 23 ± 0.4 nM | Ki [2]: 106 nM
